Laboratory results: patent publication US10472352B2, “Rac inhibitors” (Geneyus LLC, priority 2017, dated 2019)
At least one structure is not confirmed: it was looked up by name or label, or the drawing left a doubt.

Assays:
Assay type in all cases: cell-based
[1] = system: Androgen Receptor (AR) luciferase reporter in LNCaP prostate cancer cells; assay: Inhibition of Androgen Receptor Luciferase Expression; conditions: 10 nM DHT, 4 hours, 1 uM bicalutamide, 1 uM enzalutamide, 5 or 10 uM 0032661
Experimental: After 4 hours, cell lysate was harvested. 50 μg protein lysates were used in a luciferase assay. The data, shown in FIG. 12, is expressed as relative luciferase units (RLU).

[2] = system: Androgen Receptor (AR) luciferase reporter in LNCaP prostate cancer cells; assay: LNCaP ARE Luciferase Assay; conditions: 10 nM DHT, 4 hours, 1 uM bicalutamide, 1 uM enzalutamide, 5 or 10 uM 0032661
Experimental: LNCaP prostate cancer cells as well as LNCaP cells that overexpress the oncogenic androgen receptor splice variant (designated ARV7) were engineered to express an Androgen Receptor (AR) luciferase reporter (SABiosciences). […] After 4 hours, cell lysate was harvested. 50 μg protein lysates were used in a luciferase assay.

[3] = system: androgen receptor response gene (PSA) in LNCaP prostate cancer cells; assay: Inhibition of Androgen Receptor Target Gene Transcription (PSA qPCR); conditions: 10 nM DHT, 4 hours, 10 uM bicalutamide, 10 uM enzalutamide, 12.5 or 25 uM 0032661
Experimental: After 4 hours, RNA was harvested and converted into cDNA. qPCR analysis for PSA was performed on all samples and normalized to expression of GAPDH. The data, shown in FIG. 11, is expressed as fold change relative to PSA expression of the cFBS sample.

## CC(O)(CS(=O)(=O)c1ccc(F)cc1)C(=O)Nc1ccc(C#N)c(C(F)(F)F)c1 (stereo not drawn) [bicalutamide, reference compound]
[1]
  androgen receptor luciferase expression (RLU): inhibit the androgen receptor luciferase expression
[2]
  androgen receptor luciferase expression (fold activation): inhibit the androgen receptor luciferase expression
[3]
  androgen receptor target gene transcription (PSA): inhibit the androgen receptor target gene transcription
